Experimental data: PubChem BioAssay AID1259289 (Sanger Institute, 2017)

- Aim: 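Kinases that bowel cancer cells need to survive, with or without BYL719, cetuximab, trametinib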 (primary screen)
- Cells: human LS513 colorectal cancer cells
- Knock-down reagent: siRNA pool against human genes
- Treatment: anchor drug BYL719 at 1 µM, cetuximab at 5 µg/ml or trametinib at 10 nM, or DMSO vehicle alone; exposure time not given
- Measured: 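Cell survival as a fraction of the non-targeting pool, replicate means; robust z-score for silencing alone under DMSO; synergy score for each of BYL719, cetuximab and trametinib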
- Scale: robust z-score, siRNA alone (DMSO): higher = more viable cells; strongly negative means essential; viability with DMSO vs control: higher = more viable cells
- Rule for the call: 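a gene counts as active if its DMSO-only robust z-score falls under -3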
- Calls: active = essential (knock-down alone); inactive = not essential
In all, the deposit lists 794 reagents; below is an unselected part. 16 of them (2%) count as active. 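Active marks cell loss from silencing alone; drug synergy shows only in the synergy scores, not the calls.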 Unmarked entries are inactive. Viability is capped at 1. Further read-outs or replicates are left out here. Not stated in the record: the amount of reagent, the time to read-out.

| gene | robust z-score, siRNA alone (DMSO) | viability with DMSO vs control (fraction of control) |
| --- | --- | --- |
| SF3B1 | -4.98 (active) | 0.214 |
| POMK | 0.561 | 1 |
| DLG4 | 0.561 | 1 |
| STK32A | 0.561 | 1 |
| CAMKK1 | -0.0798 | 0.909 |
| ALDH18A1 | 0.561 | 1 |
| STK36 | 0.561 | 1 |
| EIF2AK2 | 0.561 | 1 |
| FCSK | -0.503 | 0.849 |
| AURKC | 0.461 | 0.986 |
| TNIK | 0.561 | 1 |
| STK25 | 0.561 | 1 |
| NIM1K | 0.561 | 1 |
| NEK2 | -0.224 | 0.889 |
| GSK3A | 0.561 | 1 |
| STK39 | -1.25 | 0.742 |
| PRKCH | -0.452 | 0.856 |
| NME3 | 0.561 | 1 |
| MARK3 | 0.561 | 1 |
| AK4 | 0.561 | 1 |
| PIP4K2B | 0.255 | 0.957 |
| BMP2K | -0.271 | 0.882 |
| PDIK1L | 0.561 | 1 |
| PRKAA1 | 0.561 | 1 |
| MAPKAPK5 | -0.308 | 0.877 |
| DBF4 | 0.561 | 1 |
| FGFR3 | 0.561 | 1 |
| BRWD1 | 0.561 | 1 |
| LRRK1 | 0.561 | 1 |
| PRKAG1 | 0.561 | 1 |
| TAB1 | 0.561 | 1 |

5 of these entries, reformatted:
gene | robust z-score, siRNA alone (DMSO) | viability with DMSO vs control (fraction of control)
STK36 | 0.561 | 1
EIF2AK2 | 0.561 | 1
FCSK | -0.503 | 0.849
AURKC | 0.461 | 0.986
TNIK | 0.561 | 1

Further entries follow.
| gene | robust z-score, siRNA alone (DMSO) | viability with DMSO vs control (fraction of control) |
| --- | --- | --- |
| MYLK2 | -0.175 | 0.896 |
| NRAS | 0.561 | 1 |
| TP53RK | 0.0251 | 0.924 |
| PNCK | 0.561 | 1 |
| CHEK1 | -2.88 | 0.512 |
| PTK2B | 0.561 | 1 |
| COQ8B | 0.561 | 1 |
| TYK2 | -2.4 | 0.579 |
| CSNK1A1L | 0.561 | 1 |
| PRKG1 | 0.561 | 1 |
| SMC1A | -0.0126 | 0.919 |
| PDGFRB | -1.76 | 0.67 |
| PRKAR2A | 0.561 | 1 |
| CDKL1 | -0.527 | 0.846 |
| AURKB | -1.16 | 0.756 |
| GRK5 | 0.561 | 1 |
| KSR2 | 0.561 | 1 |
| ADGRL2 | 0.405 | 0.978 |
| NRBP2 | -0.164 | 0.897 |
| ACVR2B | 0.561 | 1 |
| CDKN2B | 0.561 | 1 |
| MAP3K1 | 0.561 | 1 |
| TRIB3 | 0.528 | 0.995 |
| PIK3C2G | -2.3 | 0.593 |
| PIP4K2A | 0.561 | 1 |
| MET | 0.561 | 1 |
| MAST2 | 0.561 | 1 |
| ULK3 | 0.561 | 1 |
| KRAS | -5.69 (active) | 0.113 |
| TWF2 | 0.561 | 1 |
| AK1 | 0.525 | 0.995 |
| EIF2AK1 | -0.17 | 0.896 |
